Like-named read-outs stand apart in the source and are kept apart here.
System: CFU-GM, BFU-E and CFU-GEMM progenitor cells
Conditions: 80 μg/kg s.c.
Experimental: Five healthy human volunteers having initial white blood cell counts of 4,500-7,500 cells/mm^3 were used in the study. […] Blood samples were obtained via catheter prior to the dose, and at various times up to 24 hours after dosing.
All progenitor cell results are based on the scoring of 3 culture plates per assay per point.
For the progenitor cell numbers and cycling status, the numbers of CFU-GM, BFU-E and CFU-GEMM in methylcellulose cultures by stimulation of the cells with 1 Unit (U)/ml recombinant human (rhu) erythropoietin, 100 U/ml rhu granulocyte-macrophage colony stimulating factor (GM-CSF), 100 U/ml rhu interleukin-3 (IL-3) and 50 ng/ml rhu steel factor (SLF=stem cell factor (SCF)). The CFU-GM were also evaluated in agar cultures stimulated with 100 U/ml rhu GM-CSF and 50 ng/ml rhu SLF. For both types of assays, colonies were scored after 14 day incubation in a humidified atmosphere with 5% CO2 and lowered (5%) O2 tension. Cell cycling status of progenitors was measured using a high specific activity tritiated thymidine kill technique as previously described (Broxmeyer, H. E., et al., Exp. Hematol. (1989) 17:455-459).

c1cc(CN2CCCNCCNCCCNCC2)ccc1CN1CCCNCCNCCCNCC1 [AMD3100, 1,1′-[1,4-phenylene-bis(methylene)]-bis-1,4,8,11-tetraazacyclotetradecane]
Cycling Status of Progenitors, BFU-E (P1, T = 1 hour): 0%
Cycling Status of Progenitors, CFU-GEMM (P1, T = 1 hour): 0%
Cycling Status of Progenitors, CFU-GM (P1, T = 1 hour): 1%
Cycling Status of Progenitors, BFU-E (P1, T = 3 hours): 13%
Cycling Status of Progenitors, CFU-GEMM (P1, T = 3 hours): 7%
Cycling Status of Progenitors, CFU-GM (P1, T = 3 hours): 1%
Cycling Status of Progenitors, BFU-E (P1, T = 6 hours): 0%
Cycling Status of Progenitors, CFU-GEMM (P1, T = 6 hours): 0%
Cycling Status of Progenitors, CFU-GM (P1, T = 6 hours): 0%
Cycling Status of Progenitors, BFU-E (P1, T = 9 hours): 11%
Cycling Status of Progenitors, CFU-GEMM (P1, T = 9 hours): 0%
Cycling Status of Progenitors, CFU-GM (P1, T = 9 hours): 2%
Cycling Status of Progenitors, BFU-E (P1, T = 24 hours): 0%
Cycling Status of Progenitors, CFU-GEMM (P1, T = 24 hours): 0%
Cycling Status of Progenitors, CFU-GM (P1, T = 24 hours): 0%
Cycling Status of Progenitors, BFU-E (P2, T = 1 hour): 3%
Cycling Status of Progenitors, CFU-GEMM (P2, T = 1 hour): 6%
Cycling Status of Progenitors, CFU-GM (P2, T = 1 hour): 0%
Cycling Status of Progenitors, BFU-E (P2, T = 3 hours): 0%
Cycling Status of Progenitors, CFU-GEMM (P2, T = 3 hours): 0%
Cycling Status of Progenitors, CFU-GM (P2, T = 3 hours): 2%
Cycling Status of Progenitors, BFU-E (P2, T = 6 hours): 0%
Cycling Status of Progenitors, CFU-GEMM (P2, T = 6 hours): 0%
Cycling Status of Progenitors, CFU-GM (P2, T = 6 hours): 0%
Cycling Status of Progenitors, BFU-E (P2, T = 9 hours): 0%
Cycling Status of Progenitors, CFU-GEMM (P2, T = 9 hours): 4%
Cycling Status of Progenitors, CFU-GM (P2, T = 9 hours): 0%
Cycling Status of Progenitors, BFU-E (P2, T = 24 hours): 2%
Cycling Status of Progenitors, CFU-GEMM (P2, T = 24 hours): 0%
Cycling Status of Progenitors, CFU-GM (P2, T = 24 hours): 3%
Cycling Status of Progenitors, BFU-E (P3, T = 1 hour): 0%
Cycling Status of Progenitors, CFU-GEMM (P3, T = 1 hour): 0%
Cycling Status of Progenitors, CFU-GM (P3, T = 1 hour): 0%
Cycling Status of Progenitors, BFU-E (P3, T = 3 hours): 0%
Cycling Status of Progenitors, CFU-GEMM (P3, T = 3 hours): 0%
Cycling Status of Progenitors, CFU-GM (P3, T = 3 hours): 1%
Cycling Status of Progenitors, BFU-E (P3, T = 6 hours): 0%
Cycling Status of Progenitors, CFU-GEMM (P3, T = 6 hours): 0%
Cycling Status of Progenitors, CFU-GM (P3, T = 6 hours): 0%
Cycling Status of Progenitors, BFU-E (P3, T = 9 hours): 0%
Cycling Status of Progenitors, CFU-GEMM (P3, T = 9 hours): 0%
Cycling Status of Progenitors, CFU-GM (P3, T = 9 hours): 0%
Cycling Status of Progenitors, BFU-E (P3, T = 24 hours): 0%
Cycling Status of Progenitors, CFU-GEMM (P3, T = 24 hours): 0%
Cycling Status of Progenitors, CFU-GM (P3, T = 24 hours): 0%
Cycling Status of Progenitors, BFU-E (P4, T = 1 hour): 0%
Cycling Status of Progenitors, CFU-GEMM (P4, T = 1 hour): 0%
Cycling Status of Progenitors, CFU-GM (P4, T = 1 hour): 0%
Cycling Status of Progenitors, BFU-E (P4, T = 3 hours): 9%
Cycling Status of Progenitors, CFU-GEMM (P4, T = 3 hours): 0%
Cycling Status of Progenitors, CFU-GM (P4, T = 3 hours): 5%
Cycling Status of Progenitors, BFU-E (P4, T = 6 hours): 0%
Cycling Status of Progenitors, CFU-GEMM (P4, T = 6 hours): 8%
Cycling Status of Progenitors, CFU-GM (P4, T = 6 hours): 0%
Cycling Status of Progenitors, BFU-E (P4, T = 9 hours): 0%
Cycling Status of Progenitors, CFU-GEMM (P4, T = 9 hours): 0%
Cycling Status of Progenitors, CFU-GM (P4, T = 9 hours): 0%
Cycling Status of Progenitors, BFU-E (P4, T = 24 hours): 3%
Cycling Status of Progenitors, CFU-GEMM (P4, T = 24 hours): 0%
Cycling Status of Progenitors, CFU-GM (P4, T = 24 hours): 5%
Cycling Status of Progenitors, BFU-E (P5, T = 1 hour): 0%
Cycling Status of Progenitors, CFU-GEMM (P5, T = 1 hour): 0%
Cycling Status of Progenitors, CFU-GM (P5, T = 1 hour): 0%
Cycling Status of Progenitors, BFU-E (P5, T = 3 hours): 3%
Cycling Status of Progenitors, CFU-GEMM (P5, T = 3 hours): 0%
Cycling Status of Progenitors, CFU-GM (P5, T = 3 hours): 5%
Cycling Status of Progenitors, BFU-E (P5, T = 6 hours): 1%
Cycling Status of Progenitors, CFU-GEMM (P5, T = 6 hours): 0%
Cycling Status of Progenitors, CFU-GM (P5, T = 6 hours): 0%
Cycling Status of Progenitors, BFU-E (P5, T = 9 hours): 0%
Cycling Status of Progenitors, CFU-GEMM (P5, T = 9 hours): 0%
Cycling Status of Progenitors, CFU-GM (P5, T = 9 hours): 0%
Cycling Status of Progenitors, BFU-E (P5, T = 24 hours): 0%
Cycling Status of Progenitors, CFU-GEMM (P5, T = 24 hours): 0%
Cycling Status of Progenitors, CFU-GM (P5, T = 24 hours): 0%

— patent US7863293B2, “CXCR4 chemokine receptor binding compounds” (Genzyme Corporation, priority 2003, dated 2011)
